This assay can be described thus: qHTS Assay for Lipid Storage Modulators in Drosophila S3 Cells.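 For cell number change: cells counted by Cell Tracker Red CMTPX staining in the red channel.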 The note with it: BODIPY lipid droplet fluorescence, 18-24 h; for cell number change: measured here: cell count max response, cells fed with added oleic acid. In outline:
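Laser-scanning cytometry quantifies lipid droplet accumulation (500–530 nm total intensity; droplet/cell object ratio) in oleic acid-fed (400 uM added) Drosophila S3 cells treated with a concentration series. 20 uM Triacsin C defined 100% inhibition.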

[1] abbreviates: measured here: lipid fluorescence (Fed channel) AC50, cells fed with added oleic acid.
Where [2] appears, read: measured here: cell number channel AC50, cells fed with added oleic acid.

This is one part of the list. These are further read-outs of the screen, such as a control signal, another cell line or another target. No call is given for them. Most of these compounds were active or inconclusive in the main read-out, so they are no random draw. The note in brackets gives the kind of curve behind each potency; many fits are weak.

As for `Cc1cc(NC(=O)c2ccc(Cn3nc(C)c(Br)c3C)o2)no1`, the cell number change was found to be 9.53%. For the same compound, under setting [1], the AC50 (in general, the concentration giving half of the maximal activity seen) is 3.26 µM [rising, full curve].

Turning to `CCN(Cc1ccncc1)Cc1ccc(OC)c(OC)c1`, the cell number change was -10%.

Consider `CN1C(C(=O)NCC2CC2)CC2Cn3c(nc4ccccc43)C21` (configuration not stated), for which the cell number change is 18.5%. For the same compound, the concentration at half-maximal activity (AC50) under setting [1] is 2.59 µM [falling, partial curve].

Consider `COCCn1cnc2c1c(=O)n(CC(=O)Nc1cc(C)on1)c(=O)n2Cc1ccccc1`, for which the cell number change came out at 48.4%. Moreover, the AC50 under setting [2] was 20.6 µM [rising, partial curve, poor fit]. In addition, the AC50 under setting [1] was 29.1 µM [rising, single point].

With `O=C(Nc1ccc(N2CCOCC2)cc1)Nc1ccc(Cl)c(Cl)c1`, the cell number change turned out to be 12%. For the same compound, under setting [2], the AC50 is 0.651 µM [rising, partial curve].

Consider `O=C(c1cc(-c2cccc(Cl)c2)on1)N1CCN(c2ccc(F)cc2)CC1`, for which the cell number change was 10.8%.

Consider `O=C(CCc1ccc(S(=O)(=O)NC2CCCCC2)cc1)Nc1ccccc1`, for which the cell number change came out at 25.4%. Moreover, the AC50 under setting [1] was 20.6 µM [rising, partial curve].

On to `CCN(CC(=O)Nc1ccc2c(c1)OCCO2)CC(=O)Nc1cc(C)on1`, for which the cell number change stood at 13.4%. Besides, the AC50 under setting [1] was 13 µM [rising, single point].

For the compound `CCNc1nc(N)c(C(=O)c2ccc(Cl)s2)s1`, the cell number change was -22.5%. Moreover, the AC50 under setting [1] was 0.92 µM [rising, full curve].

For `COc1cc(C(=O)N(Cc2ccccn2)CC2CCCO2)cc(OC)c1OC` (configuration not stated), the cell number change is -29.1%. Moreover, under setting [2], the concentration at half-maximal activity (AC50) was 0.164 µM [falling, full curve, poor fit].

For `NC(=O)C[C@@H]1N[C@]2(C(=O)Nc3ccccc32)[C@@H]2C(=O)N(C3CCCCC3)C(=O)[C@H]12`, the cell number change was -3.68%. Under setting [2], the AC50 is 0.092 µM [falling, full curve]. Moreover, the AC50 under setting [1] is 3.66 µM [falling, full curve, poor fit].

Consider `CCOc1ccc(Nc2oc(Cc3ccccc3)nc2C#N)cc1`, for which the cell number change came to 71.4%. Moreover, under setting [2], the AC50 is 8.2 µM [rising, partial curve]. Also, under setting [1], the AC50 is 6.51 µM [rising, single point].

Regarding `CCc1ccc(-c2nc(SCC(=O)N(C)C3CCS(=O)(=O)C3)n[nH]2)cc1` (configuration not stated), the cell number change is -29.3%.

With `O=C(NCc1cccs1)c1cccnc1SCCS(=O)(=O)c1ccc(C(F)(F)F)cn1`, the cell number change is -54.3%. Besides, the AC50 under setting [2] was 1.03 µM [falling, full curve, poor fit]. Further, the AC50 under setting [1] is 29.1 µM [falling, single point].

For `COC(=O)CCCCC(=O)OC`, the cell number change was -4.52%. In addition, the AC50 under setting [1] is 29.1 µM [rising, single point].

On to `CN(C)CCN(C(=O)CN1C(=O)c2ccccc2C1=O)c1nc2cc3c(cc2s1)OCO3`, for which the cell number change came out at 7.76%. The AC50 under setting [1] is 1.16 µM [rising, full curve, poor fit].

As to `CCC(=O)NC(=S)Nc1ccc(NC(=O)c2ccc([N+](=O)[O-])cc2)cc1`, the cell number change amounted to 59.5%. Moreover, under setting [2], the AC50 is 9.2 µM [rising, single point]. The AC50 under setting [1] is 16.4 µM [rising, single point].

`CCC(C)(C)C1CCc2[nH]nc(C(=O)NC3CCCC3)c2C1` (configuration not stated): the cell number change was determined as 15.8%. Further, under setting [2], the AC50 is 2.91 µM [falling, single point]. In addition, the AC50 under setting [1] was 4.61 µM [falling, single point].

With `COc1cccc(C(=O)/C=C/Nc2ccc(S(=O)(=O)Nc3cc(OC)nc(OC)n3)cc2)c1`, the cell number change amounted to 3.85%. Further, the half-maximal activity concentration (AC50) under setting [1] is 29.1 µM [rising, partial curve].

Regarding `CS(=O)(=O)N1CCc2cc(C(=O)N3CCN(c4ccccc4F)CC3)ccc21`, the cell number change is -12.5%. Moreover, under setting [1], the AC50 is 0.58 µM [falling, single point].

With `CCCCc1ccc(NC(=O)c2c(C)noc2C)cc1`, the AC50 under setting [1] is 0.58 µM [falling, single point].

Take `O=C(c1cc2n(n1)C(C(F)(F)F)CC(c1ccco1)N2)N1CCc2ccccc2C1` (configuration not stated): the cell number change is -34.3%. Moreover, the AC50 under setting [2] is 16.4 µM [falling, single point]. The AC50 under setting [1] was 6.51 µM [rising, single point].

With `CCOC(=O)Cc1c(C)c2c(C)nn(-c3ccccc3)c2oc1=O`, the cell number change is -19.2%.

Consider `CCOC(CCn1c(SCc2cccc([N+](=O)[O-])c2)nc2ccccc2c1=O)OCC`, for which the cell number change was determined as 8.51%. Moreover, the concentration at half-maximal activity (AC50) under setting [1] was 6.51 µM [rising, single point].

For `Clc1cccc(Cl)c1Cn1cc(Br)cn1`, the cell number change is -0.594%.

Regarding `CC1=C(C(=O)Nc2ccccc2C(=O)NCCCN2CCN(C)CC2)SCCO1`, the cell number change was found to be 16.2%.

Source of the values: PubChem BioAssay AID2685 (National Center for Advancing Translational Sciences (NCATS), 2010).
